Results are given in words; binding and its absence hold for the method and conditions named. For some assays here: Binding can be weak; no strength is given.
Assays:
[1] = molecular target: extracellular LRR domain protein of PXL2 (PXL2^LRR) (Arabidopsis thaliana); assay: SEC; purified PXL2^LRR incubated with a pool of chemically synthesized peptides with a free C-terminal histidine or asparagine; gel filtration; bound peptide in the peak fraction detected by MALDI-TOF MS; both purified
[2] = molecular target: extracellular LRR domain protein of PXL2 (PXL2^LRR) (Arabidopsis thaliana); assay: ITC; twenty injections of peptide solution titrated into PXL2^LRR in the ITC cell; both purified

| Binder | binding [1] | binding [2] |
| --- | --- | --- |
| HGVPSGPNPISN (hydroxyproline (Hyp) at positions 4 and 7) [CLE42] | binds | – |
| RLVPSGPNPLHH (hydroxyproline (Hyp) at positions 4 and 7) [CLE13] | – | no binding |

Reference: publication PMC5546936, “CLE42 binding induces PXL2 interaction with SERK2” (Protein & Cell, 2017)
